{"source": "PubChem BioAssay AID504834", "about": "(National Center for Advancing Translational Sciences (NCATS), 2011)", "note": "Hit rate of the full screen: of about 320,000 compounds, about 22,000 (6.9%) were called active. This list was built around the results that the source calls inconclusive (neither active nor inactive); the mix of calls is not that of the screen. The call rests on the fitted dose curve; in most records, active means well fitted inhibition curve with a large enough effect; inconclusive means small, poorly fitted or top-dose-only effect, or another doubt; inactive means no such curve, though single readings can be large or run the other way. Potencies of inconclusive entries are doubtful fits and often do not repeat. Potency means the concentration at half of the fitted maximal effect."}
{"test": "Primary qHTS for delayed death inhibitors of the malarial parasite plastid, 96 hour incubation", "settings": "P. falciparum luciferase reporter growth; series mostly up to 28.7 µM", "outline": "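Erythrocytes infected with luciferase-expressing P. falciparum were dispensed at 2% hematocrit and 0.05% parasitemia (final), then incubated with compounds 96 hours at 37 C in 5% CO2. Luminescence after detection reagent addition reported growth.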"}
{"smiles": "CC(C)CC(NC(=O)c1cccs1)c1nnc(SCc2ccc(Cl)c(Cl)c2)n1C", "note": "(configuration not stated)", "Potency": "inconclusive: 18.5 µM [inhibitor, single point]"}
{"smiles": "C/C(=N\\N1CCCCC1)c1c(O)[nH]c(=O)[nH]c1=O", "Potency": "inconclusive: 0.165 µM [inhibitor, partial curve, poor fit]"}
{"smiles": "CCN(CC)C(=O)CSc1nnc2cc(C)c3ccccc3n12", "Potency": "inconclusive: 3.7 µM [inhibitor, partial curve, poor fit]"}
{"smiles": "Cn1c(=O)[nH]c(=O)c2c1nc(N1CCCCCC1)n2Cc1cccc2ccccc12", "Potency": "inconclusive: 16.5 µM [inhibitor, partial curve]"}
{"smiles": "CCOC(=O)c1sc(NC(=O)c2ccc(C)o2)nc1C", "Potency": "inactive"}
{"smiles": "Cc1cccc(NC(=O)COC(=O)c2ccccn2)c1", "Potency": "inactive"}
{"smiles": "C/C(=N\\Nc1nc(C)cc(C)n1)c1ccc(C)o1", "Potency": "inconclusive: 1.85 µM [inhibitor, full curve, poor fit]"}
{"smiles": "Fc1ccc(NC(=S)N/N=C/c2ccc(F)c(F)c2)c(F)c1", "Potency": "inconclusive: 13.1 µM [inhibitor, single point]"}
{"smiles": "COc1ccc(NC(=O)C2CCCN(c3nn4c(=O)cc(C)nc4s3)C2)c(OC)c1", "note": "(configuration not stated)", "Potency": "inconclusive: 18.5 µM [inhibitor, partial curve, poor fit]"}
{"smiles": "O=C(Nc1ccc(OC(F)(F)F)cc1)c1cnccn1", "Potency": "inconclusive: 6.57 µM [inhibitor, partial curve]"}
{"smiles": "CC(C)c1ccc(C(=O)N(c2ccccn2)C(C)c2ccco2)cc1", "note": "(configuration not stated)", "Potency": "inconclusive: 18.5 µM [inhibitor, single point]"}
{"smiles": "Cn1c(C(=O)NCc2cccs2)cc2c(=O)n(C)c3ccccc3c21", "Potency": "inconclusive: 13.1 µM [inhibitor, partial curve, poor fit]"}
{"smiles": "CCC(CC)C(=O)c1c[nH]c(C(=O)NC2CCCCCC2)c1", "Potency": "inconclusive: 2.62 µM [inhibitor, full curve]"}
{"smiles": "Cc1cc2ccccc2n1CCNC(=O)C(C)Oc1ccccc1", "note": "(configuration not stated)", "Potency": "inconclusive: 11.7 µM [inhibitor, partial curve, poor fit]"}
{"smiles": "Cc1ccc(-c2nc(C)sc2CC(=O)Nc2cccc(C)c2C)cc1", "Potency": "inconclusive: 10.4 µM [inhibitor, partial curve, poor fit]"}
{"smiles": "CC(C)COC(=O)N1CC(O)CC1C(=O)O", "note": "(configuration not stated)", "Potency": "inconclusive: 13.1 µM [inhibitor, single point]"}
{"smiles": "O=C(C1=C[C@H](C2CC2)C[C@H](OCc2ccc(CO)cc2)O1)N1CCN(Cc2ccccc2)CC1", "Potency": "inconclusive: 4.65 µM [inhibitor, partial curve, poor fit]"}
{"smiles": "O=C(NCC(c1cccs1)N1CCOCC1)C1CCN(S(=O)(=O)c2c(Cl)cccc2Cl)CC1", "note": "(configuration not stated)", "Potency": "inconclusive: 8.28 µM [inhibitor, partial curve]"}
{"smiles": "O=C(NCc1ccccn1)Nc1ccc(Cl)cc1Cl", "Potency": "inconclusive: 13.1 µM [inhibitor, single point]"}
{"smiles": "CCCCN(C(=O)CSCC(=O)Nc1cccc(C)c1)c1c(N)n(CCCC)c(=O)[nH]c1=O", "Potency": "inconclusive: 11.7 µM [inhibitor, partial curve]"}
{"smiles": "CN(CCCNC(=O)Cn1cccc1C(=O)c1ccccc1)C1CCCCC1", "Potency": "inconclusive: 13.1 µM [inhibitor, partial curve, poor fit]"}
{"smiles": "CCCC(=O)NC(=S)c1c(C)n(C)n(-c2ccccc2)c1=O", "Potency": "inactive"}
{"smiles": "COc1ccc(C(=O)NNC(=O)c2cc3cccc(OC)c3oc2=O)cc1", "Potency": "inconclusive: 18.5 µM [inhibitor, single point]"}
{"smiles": "CC(=O)Nc1ccc(Nc2nc(C)nc3c2oc2ccccc23)cc1", "Potency": "inactive"}
{"smiles": "CC1CCN(CCc2nc3cc(NC(=O)COc4ccc(Cl)cc4)ccc3n2C)CC1", "Potency": "active: 3.29 µM"}
{"smiles": "COc1cc2c(c(OC)c1OC)CCc1cnoc1-2", "Potency": "inconclusive: 13.1 µM [inhibitor, partial curve, poor fit]"}
{"smiles": "CCCCCCCCOC(=O)c1nc(Cl)c(Cl)c(N)c1Cl", "Potency": "inconclusive: 13.1 µM [inhibitor, single point]"}
{"smiles": "Cc1cc2cc(C)c(NCCNC(=O)c3cccs3)nc2cc1C", "Potency": "inconclusive: 8.28 µM [inhibitor, single point]"}
{"smiles": "CCOc1ncccc1C(=O)N1CCCSC1=Nc1ccc(C(C)=O)cc1", "Potency": "inconclusive: 18.5 µM [inhibitor, single point]"}
{"smiles": "O=C(CSc1nc2ccccc2s1)c1cc2ccccc2o1", "Potency": "inactive"}
{"smiles": "CCC1(c2ccccc2)NC(=S)N(c2cccc(C)c2C)N1", "note": "(configuration not stated)", "Potency": "inactive"}
{"smiles": "CC1(C)Cc2c(sc3[nH]c(=S)[nH]c(=O)c23)CO1", "Potency": "inconclusive: 18.5 µM [inhibitor, single point]"}
{"smiles": "CCN1CCc2c(sc(NC(=O)c3ccc(C(=O)c4ccccc4)cc3)c2C(N)=O)C1", "Potency": "inconclusive: 11.7 µM [inhibitor, single point]"}
{"smiles": "CCOC(=O)c1c(/N=C/N(C)C)sc(/C=N/Nc2ccccc2)c1-c1ccc(Cl)cc1", "Potency": "active: 3.29 µM"}
{"smiles": "COC(=O)c1cn(C(=O)c2cc(Cl)ccc2Cl)c2ccccc12", "Potency": "active: 13.1 µM"}
{"smiles": "COc1ccc(-n2c(O)c(/C=C3\\C=Nc4ccccc43)c(=O)[nH]c2=O)cc1", "Potency": "inconclusive: 18.5 µM [inhibitor, single point]"}
{"smiles": "CC(NC(=O)CCSc1nc(-c2ccco2)cc(C(F)(F)F)n1)c1ccccc1", "note": "(configuration not stated)", "Potency": "inconclusive: 9.28 µM [inhibitor, single point]"}
{"smiles": "COc1ccc2cc(N=Cc3nc(-c4ccc(C)cc4)oc3O)cnc2c1", "Potency": "inconclusive: 13.1 µM [inhibitor, single point]"}
{"smiles": "O=S(=O)(c1ccc(F)c(F)c1F)N1CCN(C(=S)Nc2ccccc2)CC1", "Potency": "inconclusive: 4.15 µM [inhibitor, single point]"}
{"smiles": "O=C(COc1ccc(F)cc1)Nc1ccccc1N1CCOCC1", "Potency": "inconclusive: 11.7 µM [inhibitor, single point]"}
{"smiles": "CCOC(=O)CCC(=O)Nc1ccc(S(=O)(=O)N2CCCC2)cc1", "Potency": "inconclusive: 11.7 µM [inhibitor, partial curve]"}
{"smiles": "COc1ccc2c(c1)c(CC(=O)Nc1nnc(C3CC3)s1)c(C)n2C(=O)c1ccc(Cl)cc1", "Potency": "inconclusive: 4.65 µM [inhibitor, partial curve, poor fit]"}
{"smiles": "CN(C[C@H](Cc1ccccc1)N(C[C@H](Cc1ccccc1)N(CCC(C)(C)C)N=O)N=O)N=O", "Potency": "inconclusive: 2.08 µM [inhibitor, full curve, poor fit]"}
{"smiles": "Clc1ccc(-c2nnc3cccc(Cl)n23)c(Cl)c1", "Potency": "inconclusive: 0.0033 µM [inhibitor, full curve, poor fit]"}
{"smiles": "Cc1cc(OCC(=O)OCC(=O)NCc2ccc3c(c2)OCO3)ccc1Cl", "Potency": "inactive"}
{"smiles": "CCOc1cc2[nH]c(=S)n(CCN3CCCCC3C)c(=O)c2cc1OCC", "note": "(configuration not stated)", "Potency": "inconclusive: 13.1 µM [inhibitor, single point]"}
{"smiles": "COc1ccccc1NC(=O)Nc1ccc(CC#N)cc1", "Potency": "inactive"}
{"smiles": "Cc1ccc(NC(=O)c2ccccc2NC(=O)c2cccnc2)cc1", "Potency": "inconclusive: 18.5 µM [inhibitor, single point]"}
{"smiles": "O=C(CSc1nnc(-c2ccc(Cl)cc2)n1CC1CCCO1)NC1CCS(=O)(=O)C1", "note": "(configuration not stated)", "Potency": "inconclusive: 16.5 µM [inhibitor, single point]"}
{"smiles": "Cc1nc(N)nc(N/N=C/c2c(F)cccc2Cl)n1", "Potency": "inactive"}
{"smiles": "O=C(c1ccco1)N1CCN(/C(=N/S(=O)(=O)c2cccs2)c2ccccc2Cl)CC1", "Potency": "inconclusive: 10.4 µM [inhibitor, partial curve, poor fit]"}
{"smiles": "O=C1CN(S(=O)(=O)c2cccc(C(=O)O)c2)c2ccccc2N1", "Potency": "inactive"}
{"smiles": "C=CCNC(=O)CN1CCC(O)(c2ccc(F)cc2)CC1", "Potency": "inconclusive: 14.7 µM [inhibitor, single point]"}
{"smiles": "C/C=C/Cn1c(SC)nc2c1c(=O)[nH]c(=O)n2C", "Potency": "inconclusive: 18.5 µM [inhibitor, single point]"}
{"smiles": "CCn1nc(NS(=O)(=O)c2ccccc2)c2cc3ccc(C)cc3nc21", "Potency": "inconclusive: 20.8 µM [inhibitor, single point]"}
{"smiles": "CCc1ccccc1Nc1nn2c(=O)c3ccc(C(=O)NCc4cccs4)cc3nc2s1", "Potency": "active: 8.28 µM"}
{"smiles": "COc1ccc(-c2noc(CSc3nc4ccccc4c(=O)n3-c3ccccc3)n2)cc1", "Potency": "inconclusive: 13.1 µM [inhibitor, single point]"}
{"smiles": "N#CC(c1ccccc1)N(CCCCl)C(=O)c1ccc(Br)cc1", "note": "(configuration not stated)", "Potency": "inconclusive: 0.0657 µM [inhibitor, full curve, poor fit]"}
{"smiles": "O=C(O)/C=C/C(=O)Nc1ccc(C(=O)c2ccccc2)cc1", "Potency": "inconclusive: 9.28 µM [inhibitor, partial curve, poor fit]"}
{"smiles": "Oc1ccc2ccccc2c1N=Nc1nccs1", "Potency": "active: 9.28 µM"}
{"smiles": "CCCCNC(=S)N1CCN(c2ccc(C(C)=O)cc2)CC1", "Potency": "inconclusive: 10.4 µM [inhibitor, single point]"}
{"smiles": "Cc1cc(NC(=O)CSc2nnc(-c3c[nH]c4ccccc34)n2-c2ccc(F)cc2)no1", "Potency": "inactive"}
{"smiles": "CCn1ccnc1CN(C)C(=O)C1CCC(=O)N(Cc2cccc(C(F)(F)F)c2)C1", "note": "(configuration not stated)", "Potency": "inactive"}
{"smiles": "O=C(CS(=O)(=O)c1ccccc1)Nc1ncc([N+](=O)[O-])s1", "Potency": "inactive"}
{"smiles": "O=C(COC(=O)c1ccc(O)cc1)NCCc1c[nH]c2ccccc12", "Potency": "inconclusive: 10.4 µM [inhibitor, single point]"}
{"smiles": "COc1ccc(C2C(C#N)=C(N)OC3=C2C(=O)CC(C)(C)C3)c([N+](=O)[O-])c1OC", "note": "(configuration not stated)", "Potency": "inconclusive: 0.0415 µM [inhibitor, full curve, poor fit]"}
{"smiles": "Cn1nccc1C(=O)NC1CCCc2c1cnn2-c1cc(F)cc(F)c1", "note": "(configuration not stated)", "Potency": "inactive"}
